From paper PMC6336344
These are yes or no findings as the source states them, for the method shown. Binding seen in cells or lysates may run through a third protein. Tags and fused reporters may be left off the sequences shown.

B1: CDG1-EYFP (CONSTITUTIVE … GROWTH 1 kinase, EYFP fusion) (enzyme, UniProt Q9LSE1 1-432)
chain: MVSCLCFRPSRKTKLKDKSHKRSIRNQTSSSSAQPAGTAKEVDSSSSQTVVQDSSRYRCQIFSYRELAIATNSFRNESLIGRGGFGTVYKGRLSTGQNIAVKMLDQSGIQGDKEFLVEVLMLSLLHHRNLVHLFGYCAEGDQRLVVYEYMPLGSVEDHLYDLSEGQEALDWKTRMKIALGAAKGLAFLHNEAQPPVIYRDLKTSNILLDHDYKPKLSDFGLAKFGPSDDMSHVSTRVMGTHGYCAPEYANTGKLTLKSDIYSFGVVLLELISGRKALMPSSECVGNQSRYLVHWARPLFLNGRIRQIVDPRLARKGGFSNILLYRGIEVAFLCLAEEANARPSISQVVECLKYIIDHTIRKERRTRRRLLGGNKDGAGTSRSPDETMMRMLEEEEEYVTSEEAIERRRVIVDDARTWAGMNRRGATPPTPTP
B2: TMK1-YFP^C (plasma membrane-localized receptor kinase TMK1) (receptor, UniProt P43298 24-942)
chain: DSDGDLSAMLSLKKSLNPPSSFGWSDPDPCKWTHIVCTGTKRVTRIQIGHSGLQGTLSPDLRNLSELERLELQWNNISGPVPSLSGLASLQVLMLSNNNFDSIPSDVFQGLTSLQSVEIDNNPFKSWEIPESLRNASALQNFSANSANVSGSLPGFLGPDEFPGLSILHLAFNNLEGELPMSLAGSQVQSLWLNGQKLTGDITVLQNMTGLKEVWLHSNKFSGPLPDFSGLKELESLSLRDNSFTGPVPASLLSLESLKVVNLTNNHLQGPVPVFKSSVSVDLDKDSNSFCLSSPGECDPRVKSLLLIASSFDYPPRLAESWKGNDPCTNWIGIACSNGNITVISLEKMELTGTISPEFGAIKSLQRIILGINNLTGMIPQELTTLPNLKTLDVSSNKLFGKVPGFRSNVVVNTNGNPDIGKDKSSLSSPGSSSPSGGSGSGINGDKDRRGMKSSTFIGIIVGSVLGGLLSIFLIGLLVFCWYKKRQKRFSGSESSNAVVVHPRHSGSDNESVKITVAGSSVSVGGISDTYTLPGTSEVGDNIQMVEAGNMLISIQVLRSVTNNFSSDNILGSGGFGVVYKGELHDGTKIAVKRMENGVIAGKGFAEFKSEIAVLTKVRHRHLVTLLGYCLDGNEKLLVYEYMPQGTLSRHLFEWSEEGLKPLLWKQRLTLALDVARGVEYLHGLAHQSFIHRDLKPSNILLGDDMRAKVADFGLVRLAPEGKGSIETRIAGTFGYLAPEYAVTGRVTTKVDVYSFGVILMELITGRKSLDESQPEESIHLVSWFKRMYINKEASFKKAIDTTIDLDEETLASVHTVAELAGHCCAREPYQRPDMGHAVNILSSLVELWKPSDQNPEDIYGIDLDMSLPQALKKWQAYEGRSDLESSTSSLLPSLDNTQMSIPTRPYGFAESFTSVDGR

Key:
[1] = target: BSK3-HA (BRASSINOSTEROID-… KINASE 3, HA-tagged, expressed from BSK3pro:BSK3-HA in Arabidopsis) (Arabidopsis thaliana) (UniProt Q8W4L3); test: co-IP; transgenic Arabidopsis co-expressing BSK3-HA and a GFP/EYFP fusion; 300-870 μg microsomal proteins from 7 or 8-day-old light-grown seedlings; IP with anti-HA antibody and protein G agarose, blot with anti-GFP; also done after 1 μM BL for 30 minutes (BSK3-HA/BRI1-GFP reduced, the others not affected)
[2] = target: BSK3-YFP^N (Arabidopsis thaliana) (UniProt Q8W4L3); test: split reporter; BiFC with halves of YFP (pSPYNE-35S, pSPYCE-35S), transient co-expression in Nicotiana benthamiana leaves, confocal microscopy of leaf epidermal cells

Binder	binding [1]	binding [2]
B1	no binding	
B2		no binding
